Literature values, collected in US11903386B2, “Strigolactone analogs and their usage in plant control” (King Abdullah University of Science and Technology, priority 2016, dated 2024).
Some of these results come from one statement about several compounds together. Some compounds share one range, which may span the group rather than tell each member.

test system: Striga; conditions: millimolar concentrations; cited from earlier work

SMILES | Striga germination
COC(=O)/C(=C/OC1C=C(C)C(=O)O1)c1ccccc1 (racemic) [MP3, (E)-methyl 3-(4-methyl-5-oxo-2,5-dihydrofuran-2-yloxy)-2-phenylacrylate] | 20-30%
COC(=O)/C(=C/OC1C=C(C)C(=O)O1)c1ccc(Cl)cc1 (stereo not drawn) [MP7] | 20-30%
COC(=O)/C(=C/OC1C=C(C)C(=O)O1)c1ccc(OC)cc1 (stereo not drawn) [MP14] | 20-30%
